PubChem BioAssay AID1259308 – NCATS | 2017
The deposit covers about 59,000 reagents; below is a part drawn at random. About 1,510 of them (2.6%) count as active. 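Calls use total luciferase alone and ignore viability, so some active siRNAs may act by altering cell number.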

Screen: 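Candidate targets for better recombinant protein yield in mammalian cells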 (primary screen)
System: human HEK293 embryonic kidney cells stably expressing firefly luciferase (HEK-CMV-Luc2-Hygro)
Reagent: single siRNA against human genes, 0.8 pmol siRNA per well
Duration: 72 h
Detection: 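Luciferase light (ONE-Glo) measured on one replicate plate set and viability (CellTiter-Glo) on the other, scaled to a negative control siRNA, with robust z-scores and luciferase per cell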
Reading the numbers: total luciferase, z-score and total luciferase, % of control: higher = more reporter protein produced; luciferase per cell, z-score: higher = more reporter output per viable cell; viable cells, % of control: higher = more viable cells
Rule for the call: 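Active when the median/MAD z-score for overall luciferase is greater than 3; a gene was taken forward for validation with new siRNAs if at least two of its three siRNAs passed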
Meaning of the calls: active = raised luciferase; inactive = no rise

no.	Gene	PubChem SID	total luciferase, z-score	total luciferase, % of control	luciferase per cell, z-score	viable cells, % of control	Outcome
1	RD3	SID160764672	-0.345	75	0.41	75.3	inactive
2	RD3	SID160764673	-0.809	65.8	-0.659	87.5	inactive
3	RD3	SID160764674	-0.589	70.2	-0.797	96.7	inactive
4	PFDN6	SID160728504	-1.63	49.4	-1.74	87.3	inactive
5	PFDN6	SID160728507	-0.776	66.4	-0.522	85.2	inactive
6	PFDN6	SID160732280	-0.821	65.6	-0.851	91.6	inactive
7	WDR37	SID160732676	-0.72	67.6	-0.509	86.3	inactive
8	WDR37	SID160732695	-0.0755	80.4	0.108	87.3	inactive
9	WDR37	SID160732727	0.597	93.8	1.42	72.1	inactive
10	CDRT4	SID160763126	1.03	102	2.87	53.7	inactive
11	CDRT4	SID160763127	1.11	104	1.41	80.2	inactive
12	CDRT4	SID160763128	-0.403	73.9	-0.668	98.4	inactive
13	RNF126	SID160744016	0.111	84.1	0.643	79.3	inactive
14	RNF126	SID160744017	0.509	92	1.49	69.4	inactive
15	RNF126	SID160744018	0.981	101	0.861	90.3	inactive
16	CPQ	SID160728350	1.94	120	1.44	92.2	inactive
17	CPQ	SID160728351	-0.147	79	-0.784	108	inactive
18	CPQ	SID160728352	0.178	85.4	-0.192	100	inactive
19	SLC27A6	SID160738884	1.14	105	1.09	87.7	inactive
20	SLC27A6	SID160738886	-1.28	56.4	-0.939	80.7	inactive
21	SLC27A6	SID160738887	-0.281	76.3	-0.655	101	inactive
22	SSBP1	SID160717375	0.121	84.3	0.0487	93	inactive
23	SSBP1	SID160717376	0.221	86.3	0.46	85.4	inactive
24	SSBP1	SID160731795	-0.981	62.4	-1.66	108	inactive

As entered above:
Entry of CDRT4 [SID160763128] in “luciferase per cell, z-score”: -0.668
SLC27A6 [SID160738886], total luciferase, z-score → -1.28
SSBP1 [SID160717375], total luciferase, z-score → 0.121
Entry for SLC27A6 [SID160738887] under “Outcome”: inactive
